# Experimental data from the supplement of paper PMC6119338.
# ± gives the standard deviation of the averaged measurements. The list shows a part of the results. Most values come without repeats; read them as rough.
# Test system: Plasmodium berghei sporozoites
# Assay: residual sporozoite gliding motility relative to DMSO control; higher = less inhibition of motility
# Settings: 10 µM; incubation time 30 min
# Procedure: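 GFP-expressing Plasmodium berghei salivary gland sporozoites (about 2000 per well, 384-well plate, RPMI with 3% BSA) were incubated 30 min with MMV Malaria Box compounds at 10 uM, then imaged at 1 Hz for 30 s. Sporozoites moving more than one parasite length were counted manually and expressed as percentage residual motility relative to DMSO controls. The pilot screen was a single assay per compound; apparent hits were repeated up to two more times. 'No observable inhibition' in the pilot screen is encoded as inactive (>50% residual, active false), a coarse placeholder rather than a measured value.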
row,Compound,residual sporozoite gliding motility [%]
1,COc1cc2c3cc1Oc1c(OC)c(OC)cc4c1C(Cc1ccc(O)c(c1)Oc1ccc(cc1)CC3N(C)CC2)N(C)CC4 (stereo not given),> 50
2,COc1cc(OC)cc(N2C(=O)N(Cc3ccc(C(C)(C)C)cc3)c3ccccc3S2(=O)=O)c1,> 50
3,CCOc1ccc(N2C(N)=NC(N)=NC2(C)C)cc1,> 50
4,COc1ccc(N2CCN(C(CNC(=O)CC(C)(C)C)c3ccc4c(c3)OCO4)CC2)cc1 (stereo not given),> 50
5,Cc1cc(=O)oc2c1ccc1oc(C(=O)c3ccccc3)c(C)c12,> 50
6,Cc1ccccc1OCCSc1nc2ccc(NC(=O)c3ccccc3)cc2s1,> 50
7,CCCC(c1nnnn1C1CCCCC1)N1CCN(C(=O)c2ccco2)CC1 (stereo not given),> 50
8,COc1ccc2nc(C)cc(Nc3ccccc3O)c2c1,> 50
9,c1ccc(Cn2c(N=Nc3c(Nc4ccccc4)ccc4ccccc34)nc3ccccc32)cc1,> 50
10,CN(C)c1ccc(N2C(N)=NC(N)=NC2(C)C)cc1,> 50
11,OC(Cn1nnc2ccccc21)Cn1c2ccc(Br)cc2c2cc(Br)ccc21 (stereo not given),> 50
12,CCOc1ccc(Nc2ccnc3cc(Cl)ccc23)cc1,> 50
13,CCCCN(CCCC)S(=O)(=O)c1ccc(NC(=O)c2ccco2)cc1,> 50
14,CCOc1cc2c(cc1OCC)C(c1cc(Cl)ccc1O)NCC2 (stereo not given),> 50
15,Cc1ccc2c(C)nc(Nc3nc(C)cc(-c4ccccc4)n3)nc2c1,> 50
16,O=C(Nc1nc(-c2ccccn2)cs1)c1ccccc1Br,> 50
17,COc1ccc(NC(=O)C2c3ccccc3C(=O)N(CC(C)C)C2c2cccs2)cc1 (stereo not given),> 50
18,O=C(Nc1ccc(CN2CCOCC2)cc1)c1ccc(-c2cc(Cl)ccc2Cl)o1,> 50
19,O=C(NCCCN1CCC(N2CCCCC2)CC1)C1=Cc2cc(Br)ccc2OC1,> 50
20,COC(=O)c1ccc(C2C3=C(O)CC(c4ccc(F)cc4)CC3=Nc3ccccc3N2C(=O)c2ccccc2)cc1 (stereo not given),> 50

# Nothing new here: entries from further up.
row,Compound,residual sporozoite gliding motility [%]
12,CCOc1ccc(Nc2ccnc3cc(Cl)ccc23)cc1,> 50
13,CCCCN(CCCC)S(=O)(=O)c1ccc(NC(=O)c2ccco2)cc1,> 50

# Additional compounds follow.

row,Compound,residual sporozoite gliding motility [%]
1,COc1ccc2c(=O)cc(C(Cl)(Cl)Cl)oc2c1,> 50
2,N=c1n(CCN2CCCCC2)c2ccccc2n1CC(O)c1cccc(Br)c1 (stereo not given),> 50
3,O=c1nc(C=Cc2ccc(Br)cc2)oc2ccccc12,> 50
4,O=C(Nc1ccc(Cl)cc1C(=O)Nc1ccncc1)c1ccc(Cl)cc1Cl,> 50
5,COc1ccc(C2C(C(=O)Nc3cccc(OC)c3)c3ccccc3C(=O)N2C2CCCCC2)cc1 (stereo not given),> 50
6,CCCCCCc1cc2cc(-c3nc4ccccc4[nH]3)c(=Nc3ccccc3C)oc2cc1O,> 50
7,O=C(NC(c1ccccc1)c1ccc2cccnc2c1O)c1ccccc1 (stereo not given),45.3 ± 6.4
8,COc1ccc(C2c3ccc4ccccc4c3Oc3ncn(CCCn4ccnc4)c(=N)c32)cc1OC (stereo not given),> 50
9,CC(=O)NCCc1nc2ccccc2n1Cc1ccc(C(C)C)cc1,> 50
10,COc1ccc(Nc2nc(NCc3ccccc3)c3ccccc3n2)cc1,> 50
11,CCCCc1ccc(NS(=O)(=O)c2cc3c4c(c2)CCN4C(=O)CC3)cc1,> 50
12,CCOC(=O)c1cnc2ccc(CC)cc2c1O,> 50
13,CCN1CCN(c2cc(C)c3cc(NC(=O)c4ccc(OC)c(OC)c4)ccc3n2)CC1,> 50
14,CCOc1ccc(-n2cc(-c3ccccc3)c3c(SCc4cc(C)ccc4C)ncnc32)cc1,> 50
15,CCOc1ccccc1CNC(=O)C1c2ccccc2C(=O)N(CC(C)C)C1c1cccs1 (stereo not given),> 50
16,CC1CCCCN1CCCNC(=O)c1ccc2c(c1)sc1nc(-c3ccc(F)cc3)cn12 (stereo not given),> 50
17,C=CCc1c(C)nc2ccccc2c1O,> 50
18,C=C(C)CCC(C)N1CCC(N2CCC(C(=O)NCCc3ccccc3)CC2)CC1 (stereo not given),> 50
19,CCCCOC(=O)c1ccc(Nc2cc(C)nc3ccc(OC)cc23)cc1,> 50
20,COc1ccc(-c2cc3c(nn2)-c2ccccc2C3=O)cc1,> 50
